# Results taken from patent US20140179681A1, “METHODS AND COMPOSITIONS OF TARGETED DRUG DEVELOPMENT” (priority 2010, published 2014).
# System: epithelial carcinoma A431 cell line
# Assay: MTT Cell Proliferation Assay, A431 cells
# Format: cell-based
# Conditions: Table 10; ratio second/first value (MDBK/A431)
# Source text: The following example describes the MTT Cell Proliferation Assay.
# The MTT Cell Proliferation Assay is a colorimetric assay system that measures the reduction of the tetrazolium salt MTT (3-(4,5-dimethylthiazol-2-yl)-2,5-diphenyltetrazolium bromide) into insoluble formazan crystals, produced by the mitochondria of viable cells. […] The color can then be quantified by spectrophotometric means. Among the applications for the method are drug sensitivity, cytotoxicity, response to growth factors, and cell activation. The reduction of tetrazolium salts is now recognized as a safe, accurate alternative to radiometric testing.
# Two replicates on each cell plate and 2 duplicate plates gave 4 individual replicates of each concentration, in each cell line. Concentrations were diluted in 100% DMSO from 25 mM stocks.
# Twelve 96 well plates of each cell line were plated. Plating was done by dislodging cells as in passage protocol, counting on a hemocytometer, re-suspending in standard growth media, and plating using a multichannel pippetor.
# 16 μl of 25 mM stock+34 μl DMSO=8 mM starting concentrations, and serial diluted as with test compounds in same plate. […] Two replicates of each concentrations was run on each cell plate. All compound addition and cell treatments were done using aseptic technique under a laminar flow aseptic hood.
# Control: 0.5% DMSO in treatment media was used as the control.
# MTT dye (Thiazolyl Blue Tetrazolium Bromide, Sigma cat #M5655) stock was prepared in bulk and stored at 4° C. for use: 5 mgs/ml sterile PDS, shielded from light. 4 ul of this stock per 100 uls treatment media per well was used.
# Plates were incubated overnight prior to treatment, with treatment day=Day 0. Compound treatments were prepared prior to washing cells to minimize time cells were dry at room temperature after final aspiration. Compounds were diluted in 100% DMSO in 96 well polypropylene plates: 40 μl 25 mM stock+10 μl DMSO=20 mM; 20 μl of 20 mM+30 μl DMSO=8 mM; 20 μl of 8 mM+30 μl DMSO=3.2 mM; 20 μl of 3.2 mM+30 μl DMSO=1.3 mM; 20 μl of 1.3 mM+30 μl DMSO=0.51 mM.
# 5.0 μl/ml were added to treatment media, in sterile, 2.2 ml deep well plates=0.5% dmso final. Ten μl of each dmso concentration was added to 2.0 ml of treatment media and then mixed using a 1200 μl multichannel pipettor. Cell plates were treated from the deep well plates. Treatment media was standard growth media containing 0.5% FBS and standard additions. This reduced FBS concentration allowed for a slower growth rate in cells.
# Media was aspirated from cell plates, and washed with 200 μl/well sterile PBS. Aspirated PBS wash, and cell plates were treated with 200 μl of compound/treatment media per well, and incubated at 37° C., 5% CO2 for 3 days.
# Prior to harvesting, visual observations were made under an inverted microscope. Plates were harvested by: aspirating the growth media; adding back MTT dye/100 μl treatment media; and incubating plates at 37° C. for 1 hour. MTT dye was aspirated. 100 μl/well dmso was added, and then shaken on a Bellco plate shaker for 5 minutes, at 4.5 setting.
# Plates were read in a Tecan Sunrize UV plate reader, at 560 nm. Settings: Read mode, Outside Normal 2 sec; Shake settle time 3 sec. Data is reported as % inhibition, calculated for individual plates using control values from that plate.
row,SMILES,MTT assay (value in parentheses)
1,Cc1ccccc1NS(=O)(=O)c1ccc(NC(=S)Nc2cccc(C(F)(F)F)c2)cc1 [AD4-12487],0.85
2,Cc1cc(C)cc(NC(=S)Nc2ccc(S(=O)(=O)Nc3cc(Cl)cc(Cl)c3)cc2)c1 [AD4-12461],1.46
3,O=S(=O)(Nc1ccccc1)c1ccc(NC(=S)Nc2ccc(Cl)cc2)cc1 [AD4-12783],1.09
4,CC(=O)c1ccc(NC(=S)Nc2ccc(S(=O)(=O)Nc3ccccc3C)cc2)cc1 [AD4-10700],0.98
5,Cc1ccc(NC(=S)Nc2ccc(S(=O)(=O)Nc3ccc(Cl)c(Cl)c3)cc2)cc1 [AD4-12438],1.04
6,CC1CCc2cc(F)ccc2N1S(=O)(=O)c1ccc(NC(=S)Nc2cccc(Cl)c2Cl)cc1 (stereo not shown) [AD4-12853],0.86
7,CC(=O)c1cccc(NC(=S)Nc2ccc(NS(=O)(=O)c3ccc(C)cc3)cc2)c1 [AD4-10693],0.74
8,CCOc1ccc(NS(=O)(=O)c2ccc(NC(=S)Nc3ccccc3)cc2)cc1 [AD4-11344],1.01
9,O=S(=O)(Nc1ccc(Cl)cc1)c1ccc(NC(=S)Nc2ccc(Br)cc2)cc1 [AD4-12504],1.41
10,Cc1cc(C)cc(NC(=S)Nc2ccc(S(=O)(=O)Nc3ccc(Cl)cc3)cc2)c1 [AD4-12512],0.91
11,Cc1cccc(NC(=S)Nc2ccc(S(=O)(=O)Nc3ccc(Cl)c(Cl)c3)cc2)c1 [AD4-12442],1.03
12,CCCCc1ccc(NC(=S)Nc2ccc(S(=O)(=O)Nc3ccc(Cl)cc3)cc2)cc1 [AD4-12501],1.00
13,COc1ccc(NC(=S)Nc2ccc(S(=O)(=O)Nc3cc(Cl)cc(Cl)c3)cc2)cc1OC [AD4-12481],1.06
14,Cc1cc(C)c(NS(=O)(=O)c2ccc(NC(=S)Nc3ccc(S(N)(=O)=O)cc3)cc2)c(C)c1 [AD4-12250],0.91
15,CCOc1ccccc1NC(=S)Nc1ccc(S(=O)(=O)Nc2ccc(Cl)c(Cl)c2)cc1 [AD4-12443],1.03
16,CCc1ccc(NC(=S)Nc2ccc(S(=O)(=O)Nc3ccccc3)cc2)cc1 [AD4-12854],1.23
17,CC(C)c1ccc(NC(=S)Nc2ccc(S(=O)(=O)Nc3ccccc3)cc2)cc1 [AD4-12820],0.99
18,Cc1cccc(NC(=S)Nc2ccc(S(=O)(=O)Nc3cc(Cl)cc(Cl)c3)cc2)c1 [AD4-12472],0.87
19,CCC(C)c1ccc(NC(=S)Nc2ccc(S(=O)(=O)Nc3ccccc3)cc2)cc1 (stereo not shown) [AD4-12798],1.20
20,CC(C)c1ccc(NC(=S)Nc2ccc(S(=O)(=O)Nc3cc(Cl)cc(Cl)c3)cc2)cc1 [AD4-12424],1.16
21,CC1CCc2cc(F)ccc2N1S(=O)(=O)c1ccc(NC(=S)Nc2ccc(F)cc2)cc1 (stereo not shown) [AD4-12850],1.13
22,O=S(=O)(Nc1cc(Cl)cc(Cl)c1)c1ccc(NC(=S)Nc2ccc(Cl)c(Cl)c2)cc1 [AD4-12528],0.98

row,SMILES,MTT assay (value in parentheses)
1,COc1ccc(NC(=S)Nc2ccc(S(=O)(=O)Nc3c(C)cc(C)cc3C)cc2)cc1OC [AD4-11428],0.74
2,CCC(C)c1ccc(NC(=S)Nc2ccc(S(=O)(=O)Nc3c(C)cc(C)cc3C)cc2)cc1 (stereo not shown) [AD4-12403],1.32
3,COc1cc(NC(=S)Nc2ccc(S(=O)(=O)Nc3cc(Cl)cc(Cl)c3)cc2)cc(OC)c1 [AD4-12482],0.93
4,CC1CCc2cc(F)ccc2N1S(=O)(=O)c1ccc(NC(=S)Nc2ccc3c(c2)OCO3)cc1 (stereo not shown) [AD4-12828],2.38
5,O=S(=O)(Nc1ccccc1)c1ccc(NC(=S)Nc2cccc(C(F)(F)F)c2)cc1 [AD4-12835],0.96
6,O=S(=O)(Nc1ccc(Cl)cc1)c1ccc(NC(=S)Nc2ccccc2C(F)(F)F)cc1 [AD4-12435],0.92
7,Cc1ccc(NC(=S)Nc2ccc(S(=O)(=O)Nc3cc(Cl)cc(Cl)c3)cc2)cc1Cl [AD4-12522],0.86
8,Cc1ccc(NC(=S)Nc2ccc(S(=O)(=O)Nc3cc(Cl)cc(Cl)c3)cc2)cc1 [AD4-12460],0.87
9,O=S(=O)(Nc1ccc(Cl)cc1)c1ccc(NC(=S)Nc2cccc(Cl)c2)cc1 [AD4-12494],1.01
10,CCOc1ccc(NC(=S)Nc2ccc(S(=O)(=O)Nc3cc(Cl)cc(Cl)c3)cc2)cc1 [AD4-12529],1.02
11,CCCCc1ccc(NC(=S)Nc2ccc(S(=O)(=O)Nc3ccccc3)cc2)cc1 [AD4-12823],1.00
12,Cc1ccc(NC(=S)Nc2ccc(S(=O)(=O)Nc3ccc(Cl)cc3)cc2)cc1Cl [AD4-12505],1.06
13,COc1ccc(NC(=S)Nc2ccc(S(=O)(=O)Nc3ccc(Cl)c(Cl)c3)cc2)cc1OC [AD4-11432],1.00
14,Cc1ccccc1NS(=O)(=O)c1ccc(NC(=S)Nc2ccc(F)c(Cl)c2)cc1 [AD4-12477],0.82
15,CCOc1ccccc1NC(=S)Nc1ccc(S(=O)(=O)Nc2c(C)cc(C)cc2C)cc1 [AD4-12465],0.66
16,CC1CCc2cc(F)ccc2N1S(=O)(=O)c1ccc(NC(=S)Nc2ccc(F)c(Cl)c2)cc1 (stereo not shown) [AD4-12836],0.90
17,CCc1ccc(NC(=S)Nc2ccc(S(=O)(=O)Nc3ccc(Cl)c(Cl)c3)cc2)cc1 [AD4-12430],1.36
18,O=S(=O)(Nc1ccc(Cl)c(Cl)c1)c1ccc(NC(=S)Nc2cccc(F)c2)cc1 [AD4-12431],0.87
19,O=S(=O)(Nc1ccccc1)c1ccc(NC(=S)Nc2ccc(Cl)cc2Cl)cc1 [AD4-12822],1.02
20,CC1CCc2cc(F)ccc2N1S(=O)(=O)c1ccc(NC(=S)Nc2cccc(F)c2)cc1 (stereo not shown) [AD4-12837],0.90
21,CCN(c1ccccc1)S(=O)(=O)c1ccc(NC(=S)Nc2ccccc2)cc1 [AD4-11430],0.85

# Same assay, conditions: Table 11; ratio second/first value (MDBK/A431)
SMILES,MTT Screen (value in parentheses),MTT Follow-up (value in parentheses)
CC(C)c1ccc2oc(=O)cc(CN3CCN(Cc4ccc5c(c4)OCO5)CC3)c2c1 [AD4-10192],2.62,–
CCc1cc2c(CN3CCN(Cc4ccccc4)CC3)cc(=O)oc2cc1O [AD4-10631],1.05,–
CCc1cc2c(CN3CCN(c4ccc(OC)cc4)CC3)cc(=O)oc2cc1O [AD4-10171],1.27,–
O=c1cc(CN2CCN(Cc3ccc4c(c3)OCO4)CC2)c2cc3c(cc2o1)CCC3 [AD4-10179],1.05,–
CCc1cc2c(CN3CCN(Cc4ccc5c(c4)OCO5)CC3)cc(=O)oc2cc1O [AD4-1734],1.87,1.82
Cc1cc(C)c2oc(=O)cc(CN3CCN(Cc4ccc5c(c4)OCO5)CC3)c2c1 [AD4-10174],3.80,22.9
CC(C)c1ccc2oc(=O)cc(CN3CCN(C/C=C/c4ccccc4)CC3)c2c1 [AD4-10188],1.80,–
Cc1cc(C)c2c(CN3CCN(Cc4ccc5c(c4)OCO5)CC3)cc(=O)oc2c1 [AD4-10182],6.39,–
CCc1cc2c(CN3CCN(C(c4ccccc4)c4ccccc4)CC3)cc(=O)oc2cc1O [AD4-10619],–,1.03
Cc1ccc2c(CN3CCN(Cc4ccc5c(c4)OCO5)CC3)cc(=O)oc2c1C [AD4-10181],6.11,–
